From PubChem BioAssay AID2685 (National Center for Advancing Translational Sciences (NCATS), 2010) come the findings set out here.

The assay is described as follows: qHTS Assay for Lipid Storage Modulators in Drosophila S3 Cells.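 For cell number change: cells counted by Cell Tracker Red CMTPX staining in the red channel.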 The following applies: BODIPY lipid droplet fluorescence, 18-24 h; for cell number change: measured here: cell count max response, cells fed with added oleic acid. The procedure, abridged: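 Drosophila S3 cells got compounds at several concentrations plus oleic acid (400 uM solution). Laser-scanning cytometry with 488 nm excitation read lipid droplets at 500-530 nm and cells at 575-640 nm. Percent activity was relative to 20 uM Triacsin C.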
For orientation: In qHTS, concentration-response curves come from the screen itself.

[1] abbreviates: measured here: cell number channel AC50, cells fed with added oleic acid.
Where [2] appears, read: measured here: lipid fluorescence (Fed channel) AC50, cells fed with added oleic acid.

The list shows a part of the results. Shown are side measurements of this screen, not its main read-out; they come without a call. The list favours compounds with an active or inconclusive main result. Potencies come from curve fits of mixed quality, noted in brackets.

As for `O=C(COC(=O)c1cc(S(=O)(=O)N2CCCCC2)ccc1N1CCOCC1)NCCc1ccc(F)cc1`, the cell number change was 65.1%. Moreover, the concentration at half-maximal activity (AC50) under setting [1] was 2.06 µM [rising, partial curve]. Moreover, the AC50 under setting [2] was 2.06 µM [rising, full curve].
Turning to `COC(=O)c1ccccc1NC(=O)CN1CCC(NC(=O)c2ccccc2C)CC1`, the cell number change was -12.9%. Also, the AC50 under setting [2] is 1.84 µM [rising, full curve, poor fit].
Consider `CCCCOC1(c2ccccc2)NC(=S)NN=C1c1ccccc1` (centres undefined), for which the cell number change amounted to 62.8%. Besides, the AC50 under setting [1] was 20.6 µM [rising, single point].
Regarding `COc1cc(NC(=O)COC(=O)CNC(=O)C2CCCCC2)cc(OC)c1`, the cell number change was -2.47%. In addition, the concentration at half-maximal activity (AC50) under setting [2] is 10.3 µM [rising, partial curve].
For `CCOc1ccc(S(=O)(=O)N2CCCCC2)cc1NC(=O)CN1CCCC1c1cccs1` (centres undefined), the cell number change is -1.85%. For the same compound, the AC50 under setting [2] is 0.58 µM [falling, single point].
Turning to `COc1ccccc1CNS(=O)(=O)c1c(C(=O)N2CCCCCC2)c(C)n(C)c1C`, the cell number change was -28.8%. In addition, the half-maximal activity concentration (AC50) under setting [2] is 7.31 µM [falling, partial curve].
Regarding `COc1ccccc1-c1nnc(SCC(=O)Nc2ccc(N3CCOCC3)cc2)n1C`, the cell number change stood at 38%. Also, under setting [1], the AC50 was 29.1 µM [rising, single point].
For `O=C(NCCc1ccccc1F)[C@@H]1CSC2c3ccccc3C(=O)N21` (some centres undefined), the cell number change was 15.8%. Also, the AC50 under setting [2] was 0.146 µM [falling, full curve, poor fit].
For `COCC(=O)Oc1c(S(=O)(=O)c2ccc(C)cc2)c(C)nn1C(C)(C)C`, the cell number change is -32.4%. For the same compound, under setting [1], the AC50 was 0.00411 µM [rising, full curve, poor fit].
For the compound `Cc1ccc(OC(=O)CCC(=O)N2CCc3ccccc32)cc1`, the cell number change was 2.23%. Moreover, the AC50 under setting [2] is 0.146 µM [falling, full curve, poor fit].
With `Cc1ccc(N2CCN(C(=S)c3ccc(-c4ccccc4[N+](=O)[O-])o3)CC2)cc1`, the cell number change came out at 14.9%. In addition, the concentration at half-maximal activity (AC50) under setting [1] was 2.31 µM [rising, single point]. Further, the half-maximal activity concentration (AC50) under setting [2] was 8.2 µM [rising, single point].
On to `CCC(=O)N1CCc2cc(Br)cc(S(=O)(=O)NCC3CCCN3CC)c21` (centres undefined), for which the cell number change is -4.5%. The AC50 under setting [1] is 0.651 µM [falling, full curve, poor fit].
`CCOC(=O)C1=C(C)C/C(=N\NC(=O)c2ccccc2O)CC1`: the cell number change was -14.9%. The AC50 under setting [2] is 6.51 µM [falling, single point].
`CC(C)NC(=O)CN1CCN(C(=O)CCl)CC1`: the AC50 under setting [1] was 0.731 µM [rising, full curve] and the AC50 under setting [2] was 29.1 µM [falling, single point].
With `CC(=O)Nc1ccc(NC(=O)C2CCN(S(=O)(=O)c3ccc4c(c3)OCCO4)CC2)cc1`, the cell number change was 8.65%. Further, the AC50 under setting [2] is 4.11 µM [rising, full curve].
As for `Cc1nnc(SCC(=O)Nc2ccccc2)n1CCc1ccccc1`, the cell number change worked out at 22.8%. In addition, the AC50 under setting [2] was 0.366 µM [rising, full curve].
As for `COc1ccc(CCNC(=O)Nc2ccc(F)cc2F)cc1OC`, the cell number change was -23.5%. For the same compound, the AC50 under setting [2] is 7.31 µM [falling, partial curve].
As to `O=C(Nc1nnc(S(=O)(=O)N2CCCCCC2)s1)c1ccccc1Br`, the AC50 under setting [2] was 0.366 µM [rising, partial curve, poor fit].
`O=C(CN1C(=O)NC2(CCCC2)C1=O)Nc1ccc(F)cc1`: the cell number change amounted to 20.1%. The AC50 under setting [2] is 0.206 µM [rising, full curve, poor fit].
On to `CCOC(=O)N1CCC(NC(=O)C2CCN(C(=O)c3cc4sccc4n3CC)CC2)CC1`, for which the cell number change is -28.6%. For the same compound, the AC50 under setting [2] is 4.11 µM [falling, single point].
Consider `NC(=O)CSc1nnc(Cc2ccc3c(c2)OCO3)n1C1CCCCC1`, for which the cell number change is -1.97%. Besides, under setting [2], the concentration at half-maximal activity (AC50) is 0.92 µM [rising, full curve].
Take `COC(=O)c1ccccc1Sc1snnc1C`: the cell number change is -7.38%.
Take `CCOc1ccc(NC(=O)/C(C#N)=C/c2ccc(N3CCCC3)c(C)c2)cc1`: the cell number change came out at 18.8%.
On to `CC1CN(CC(O)COC2CCC(C(C)(C)C)CC2)CC(C)O1` (centres undefined), for which the cell number change is -11%. The half-maximal activity concentration (AC50) under setting [2] was 2.91 µM [falling, partial curve].
Turning to `CCOc1ccccc1-n1nnnc1SCC(=O)NC(=O)Nc1ccc2c(c1)OCCO2`, the cell number change worked out at 3.65%. Also, the AC50 under setting [2] is 1.84 µM [falling, partial curve].
As for `Cc1cc(=O)oc2c1c(C)nn2-c1ccc(Cl)cc1`, the cell number change was -48.3%. In addition, the half-maximal activity concentration (AC50) under setting [1] was 1.3 µM [falling, full curve, poor fit]. Moreover, the half-maximal activity concentration (AC50) under setting [2] is 9.2 µM [falling, partial curve, poor fit].
Take `Cc1ccc(N=Nc2c(O)ccc3n[nH]nc23)cc1`: the cell number change was -70.5%. Also, the AC50 under setting [1] was 20.6 µM [falling, single point]. Besides, the AC50 under setting [2] is 16.4 µM [falling, single point].
For `COc1ccc2[nH]c(=O)c(CN(Cc3cccnc3)C(=S)NCC3CCCO3)cc2c1` (centres undefined), the cell number change was 11.1%. In addition, under setting [2], the AC50 was 1.03 µM [rising, partial curve, poor fit].
Regarding `CCC(=O)N1N=C(c2c(-c3ccccc3)c3cc(Cl)ccc3[nH]c2=O)CC1c1ccco1` (centres undefined), the cell number change was -37.2%. Under setting [1], the AC50 is 11.6 µM [falling, single point].
For `CC1(C)C(=S)N(Cc2ccccc2)c2ccccc21`, the cell number change was -6.63%. In addition, the concentration at half-maximal activity (AC50) under setting [2] was 6.51 µM [rising, single point].
Turning to `CC(C)CC(=O)/C=C/n1c(=S)oc2ccccc21`, under setting [2], the AC50 was 20.6 µM [falling, single point].
With `COc1cc(NC(=O)c2cc(-c3ccccc3)on2)cc(OC)c1OC`, the cell number change worked out at 8.09%.
For `CCOc1cc(S(=O)(=O)NCc2ccc3c(c2)OCO3)ccc1F`, the cell number change was found to be 7.03%. For the same compound, the concentration at half-maximal activity (AC50) under setting [2] is 16.4 µM [rising, partial curve].
Regarding `CCC1CCCCN1C(=O)COc1cc(=O)n(C)c2ccccc12` (centres undefined), the cell number change is -7.55%. Under setting [2], the AC50 is 0.326 µM [falling, full curve, poor fit].
For `CC(=O)Oc1ccc(C(=O)Nc2ccccc2C(=O)Nc2ccc(C(=O)O)cc2)cc1`, the cell number change was -19.4%. The AC50 under setting [2] is 3.66 µM [rising, single point].
On to `CCCCN1C(=O)N(c2ccccc2Cl)C(C)(O)CC1(C)C` (centres undefined), for which the cell number change was -27.2%. The half-maximal activity concentration (AC50) under setting [1] was 3.66 µM [falling, full curve, poor fit]. Also, under setting [2], the half-maximal activity concentration (AC50) is 4.11 µM [falling, full curve, poor fit].
Consider `Cc1cccc(C)c1NC(=O)CN(C)C(=O)CSCc1c(C)noc1C`, for which the cell number change came out at 5.3%. Also, the concentration at half-maximal activity (AC50) under setting [2] was 0.206 µM [rising, full curve, poor fit].

Usually AC50 stands for the midpoint of the concentration-response curve, whichever way the signal moves. Higher therefore signals activity only at high concentration.
